Measured values taken from patent US9091687B2, “ELISpot diagnostic kit for neuromyelitis optica and its application” (priority 2012, dated 2015).

Test system: specific IL-4 T-cells secreted in the peripheral blood of NMO victims
Assay: ELISpot diagnosis of NMO: IL-4 spot detection in PBMC stimulated with the AQP-4 polypeptide
Format: cell-based, human
Conditions: 20 NMO victims
Protocol: This invention is applied to differentially diagnose 20 cases in the control group of healthy people (the Control Group), 20 cases in the control group suffering disease (multiple sclerosis victims, the MS Group) and 20 cases in the NMO group (the NMO Group), so as to preliminarily judge the specificity and sensitivity of this invention in the NMO diagnosis and then judge its clinical significance.
Add 1:500 diluted IL-4 capture antibody into the ELISpot filtration membrane plate, at 100 ul/hole; after staying overnight at 4° C., use sterile phosphate buffered solution (PBS) to wash the plate for 3 times, at 3 min/time;
PBS containing 5% bovine serum albumin is added into each hold, incubated for 2 h at 37° C.; after sealing, it is stored at 4° C., for use within 1 week.
4-5 ml of victim or health person's peripheral anticoagulated blood for storage at the normal temperature, to be detected within 6 h;
Under the condition of aseptic processing, the 1640 culture medium is used to dilute the blood at a volume ratio of 1:1, evenly mixed and then added to the surface of lymphocyte separating medium of 1 time volume, forming an obvious interface; under the room temperature, 1000 g is centrifuged for 22 min;
Use the sterile suction tube to absorb the peripheral blood mononuclear cell (PBMC) of separating layer and place it in one sterile centrifugal tube; add 8 ml of 1640 culture medium without blood serum; taken 700 g for centrifuging for 7 min;
Abandon the supernatant culture medium, and add 6 ml of 1640 culture medium suspended cells containing 10% calf serum; taken 300 g for centrifuging for 5 min; […]
Add 100 μl of substrate liquid nitrogen blue tetrazolium and 5-Br-4-Cl-3 indole phosphoric acid into each hole; place under the room temperature in a closed way for 15 min till spots appear; use the tap water to wash and then air-dry it; check the quantity of spots for statistics and analyses. […]

[1] = 20 healthy controls, 20 multiple sclerosis victims, 50 ul of 50 ug/ml polypeptide, PBMC cultivated 20 hours, preliminarily held

Which results are given for “IMVAFKGVWTQAFWKCLVTPPSVVGGLGVTMVHGNLT (listed as Homo sapiens) [this invention, polypeptide fragment joining immunogenic human AQP-4 fragments (23-36 and 135-155 amino acids), used in the ELISpot kit for diagnosis of NMO]”?
detectable rate (FIG. 2): 85%; sensitivity of NMO diagnosis [1]: 85%; specificity of NMO diagnosis [1]: 95%
